Among the data in PMC10598267 are binding values, retold here.

The chains behind the UniProt entries cited, without tags or fusion partners.
UniProt Q8WW22: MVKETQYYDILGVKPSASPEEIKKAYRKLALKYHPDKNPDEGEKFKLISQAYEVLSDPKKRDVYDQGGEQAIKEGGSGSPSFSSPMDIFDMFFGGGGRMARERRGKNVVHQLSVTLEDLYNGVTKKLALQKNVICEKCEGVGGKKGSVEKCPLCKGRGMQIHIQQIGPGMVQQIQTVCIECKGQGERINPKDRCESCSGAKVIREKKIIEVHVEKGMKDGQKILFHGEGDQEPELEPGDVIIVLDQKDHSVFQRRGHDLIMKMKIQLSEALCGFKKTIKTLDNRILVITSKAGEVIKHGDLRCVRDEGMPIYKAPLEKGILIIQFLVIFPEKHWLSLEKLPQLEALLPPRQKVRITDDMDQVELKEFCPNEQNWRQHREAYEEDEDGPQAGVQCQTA
UniProt P35579: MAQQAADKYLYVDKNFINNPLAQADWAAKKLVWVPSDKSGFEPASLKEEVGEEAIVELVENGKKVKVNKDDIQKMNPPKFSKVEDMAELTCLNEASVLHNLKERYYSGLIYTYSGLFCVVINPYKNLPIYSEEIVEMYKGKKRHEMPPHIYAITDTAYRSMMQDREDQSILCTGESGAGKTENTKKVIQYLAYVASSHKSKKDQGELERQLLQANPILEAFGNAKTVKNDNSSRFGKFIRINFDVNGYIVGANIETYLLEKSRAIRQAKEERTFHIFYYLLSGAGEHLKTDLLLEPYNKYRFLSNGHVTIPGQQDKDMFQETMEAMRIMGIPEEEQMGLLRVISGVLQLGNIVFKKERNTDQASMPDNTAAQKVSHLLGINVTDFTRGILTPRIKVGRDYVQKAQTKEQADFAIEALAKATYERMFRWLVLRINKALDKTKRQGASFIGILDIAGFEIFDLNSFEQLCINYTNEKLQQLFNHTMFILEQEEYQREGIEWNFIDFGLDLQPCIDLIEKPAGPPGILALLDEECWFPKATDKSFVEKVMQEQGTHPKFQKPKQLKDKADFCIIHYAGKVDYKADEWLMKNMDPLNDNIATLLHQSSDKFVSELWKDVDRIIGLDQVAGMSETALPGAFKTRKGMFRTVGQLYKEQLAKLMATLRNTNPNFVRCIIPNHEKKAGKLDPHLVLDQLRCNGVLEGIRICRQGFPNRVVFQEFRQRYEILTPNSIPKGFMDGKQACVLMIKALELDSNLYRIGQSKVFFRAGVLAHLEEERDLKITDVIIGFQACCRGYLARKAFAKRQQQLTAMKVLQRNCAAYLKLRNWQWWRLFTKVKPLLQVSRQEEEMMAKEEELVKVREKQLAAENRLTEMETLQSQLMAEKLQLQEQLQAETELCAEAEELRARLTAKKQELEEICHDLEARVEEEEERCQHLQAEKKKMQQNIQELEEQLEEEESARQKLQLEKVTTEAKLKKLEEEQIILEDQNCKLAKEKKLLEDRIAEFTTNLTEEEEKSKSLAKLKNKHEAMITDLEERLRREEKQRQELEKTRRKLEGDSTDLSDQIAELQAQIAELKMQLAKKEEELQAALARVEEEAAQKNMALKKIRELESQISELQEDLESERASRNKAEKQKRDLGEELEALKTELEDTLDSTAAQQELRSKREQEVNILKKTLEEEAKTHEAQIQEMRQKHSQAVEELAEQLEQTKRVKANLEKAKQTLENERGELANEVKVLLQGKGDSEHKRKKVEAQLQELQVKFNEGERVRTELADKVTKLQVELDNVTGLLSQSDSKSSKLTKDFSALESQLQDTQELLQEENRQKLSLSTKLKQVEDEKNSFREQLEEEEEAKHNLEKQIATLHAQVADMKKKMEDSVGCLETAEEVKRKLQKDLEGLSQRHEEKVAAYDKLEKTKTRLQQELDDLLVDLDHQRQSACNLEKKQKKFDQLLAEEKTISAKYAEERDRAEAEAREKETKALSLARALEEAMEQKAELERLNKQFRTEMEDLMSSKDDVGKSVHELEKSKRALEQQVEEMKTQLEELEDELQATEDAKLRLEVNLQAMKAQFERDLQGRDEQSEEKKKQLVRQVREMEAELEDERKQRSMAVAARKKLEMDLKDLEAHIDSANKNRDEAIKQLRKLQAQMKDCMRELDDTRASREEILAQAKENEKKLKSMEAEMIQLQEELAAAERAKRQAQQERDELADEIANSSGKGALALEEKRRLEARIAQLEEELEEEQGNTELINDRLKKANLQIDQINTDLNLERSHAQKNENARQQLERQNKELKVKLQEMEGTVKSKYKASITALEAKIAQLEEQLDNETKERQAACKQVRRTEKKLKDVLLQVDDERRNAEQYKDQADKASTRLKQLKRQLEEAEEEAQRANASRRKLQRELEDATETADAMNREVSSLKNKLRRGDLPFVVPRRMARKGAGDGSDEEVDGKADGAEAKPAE
UniProt Q13200: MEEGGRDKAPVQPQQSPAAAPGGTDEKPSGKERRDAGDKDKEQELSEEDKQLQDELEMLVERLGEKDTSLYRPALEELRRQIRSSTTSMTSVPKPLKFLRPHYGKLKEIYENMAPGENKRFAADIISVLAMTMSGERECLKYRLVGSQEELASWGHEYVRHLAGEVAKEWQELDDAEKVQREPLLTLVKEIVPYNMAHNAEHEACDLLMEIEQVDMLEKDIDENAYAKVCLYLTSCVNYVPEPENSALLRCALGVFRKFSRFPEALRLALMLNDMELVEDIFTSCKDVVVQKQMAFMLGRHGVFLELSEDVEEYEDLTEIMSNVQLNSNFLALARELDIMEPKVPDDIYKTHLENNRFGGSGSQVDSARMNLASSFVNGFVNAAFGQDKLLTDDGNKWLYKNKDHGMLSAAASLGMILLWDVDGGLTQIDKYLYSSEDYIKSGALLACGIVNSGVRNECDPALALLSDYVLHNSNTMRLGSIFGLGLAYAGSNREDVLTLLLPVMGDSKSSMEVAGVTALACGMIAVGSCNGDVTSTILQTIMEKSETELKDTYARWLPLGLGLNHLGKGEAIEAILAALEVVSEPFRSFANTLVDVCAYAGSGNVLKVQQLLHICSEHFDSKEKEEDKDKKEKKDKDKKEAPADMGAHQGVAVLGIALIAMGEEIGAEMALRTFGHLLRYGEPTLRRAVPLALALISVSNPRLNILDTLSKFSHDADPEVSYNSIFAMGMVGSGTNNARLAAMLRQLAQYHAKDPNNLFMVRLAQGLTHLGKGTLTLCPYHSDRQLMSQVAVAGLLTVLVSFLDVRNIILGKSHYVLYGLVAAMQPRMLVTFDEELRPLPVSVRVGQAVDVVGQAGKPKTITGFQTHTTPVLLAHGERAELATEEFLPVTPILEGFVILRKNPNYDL

Results are given in words; binding and its absence hold for the method and conditions named. Binding seen in cells or lysates may run through a third protein. Some entries that bind do so weakly or less than the wild type.

In assay [1] the target is DNAJA4 (endogenous) (human (endogenous in HONE1 and SUNE1)) (UniProt Q8WW22). The experiment in a line: co-IP; endogenous proteins in HONE1 and SUNE1 cells; IP with anti-DNAJA4 or anti-MYH9 antibodies, western blot for PSMD2. Background: In western blotting, separated proteins are transferred to a membrane and probed.
In assay [2] the target is MYH9 (endogenous) (human (endogenous in HONE1 and SUNE1)) (UniProt P35579). The description is as above.
Assay [3] has as its target HA-tagged DNAJA4 (DNAJ Heat Shock Protein Family (HSP40) Member A4) (UniProt Q8WW22). Description: co-IP; exogenous DNAJA4-HA and MYH9-FLAG in HONE1 and SUNE1 cells; IP with anti-HA or anti-Flag antibodies, western blot.
For assay [4] the target is unchanged. Description: co-IP; domain deletion mutants of DNAJA4 and PSMD2 (Supplementary Fig. S4, not shown); the text does not name the method, co-IP is the paper's only binding method.

In the case of “PSMD2 (endogenous) (from UniProt Q13200 1-908)”, the binding result in assay [1] and in assay [2] was “binds” throughout.
For the substance “FLAG-tagged MYH9 (from UniProt P35579 1-1960)”, in assay [3], the binding entry is reported as “binds”.
For “PSMD2, tagged overexpression construct (from UniProt Q13200 1-908)”, in assay [4], the binding result is “binds”.
